Measured values: PMC8213057, “Targeting ALK2: An Open Science Approach to Developing Therapeutics for the Treatment of Diffuse Intrinsic Pontine Glioma” (Journal of Medicinal Chemistry, 2020)

By UniProt entry, the sequences of proteins in these tests, tags left out. Where a name states a change or a piece, a line headed by the entry shows the natural chain unless it says otherwise. Residues count along the entry.
UniProt Q16566: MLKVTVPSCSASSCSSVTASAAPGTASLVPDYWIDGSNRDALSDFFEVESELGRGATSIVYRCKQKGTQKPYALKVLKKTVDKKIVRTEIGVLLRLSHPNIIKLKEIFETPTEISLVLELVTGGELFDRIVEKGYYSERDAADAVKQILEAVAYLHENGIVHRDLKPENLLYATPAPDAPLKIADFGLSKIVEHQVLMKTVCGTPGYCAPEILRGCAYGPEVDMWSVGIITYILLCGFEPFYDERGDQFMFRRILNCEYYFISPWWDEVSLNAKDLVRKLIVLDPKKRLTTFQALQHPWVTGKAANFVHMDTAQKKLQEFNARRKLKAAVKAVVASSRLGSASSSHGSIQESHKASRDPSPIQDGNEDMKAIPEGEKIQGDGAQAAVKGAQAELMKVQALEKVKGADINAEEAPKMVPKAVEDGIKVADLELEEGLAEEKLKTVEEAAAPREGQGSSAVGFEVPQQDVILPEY
UniProt P11802: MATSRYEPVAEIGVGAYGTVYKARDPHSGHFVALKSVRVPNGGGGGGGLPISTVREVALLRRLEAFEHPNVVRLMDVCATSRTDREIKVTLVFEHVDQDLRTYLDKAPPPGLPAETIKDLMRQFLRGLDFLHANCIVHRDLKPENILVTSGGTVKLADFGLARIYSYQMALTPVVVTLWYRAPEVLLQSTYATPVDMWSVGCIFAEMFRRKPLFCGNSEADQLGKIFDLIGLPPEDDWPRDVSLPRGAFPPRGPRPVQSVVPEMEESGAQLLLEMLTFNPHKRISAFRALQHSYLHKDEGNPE
UniProt P09619, 33-1106: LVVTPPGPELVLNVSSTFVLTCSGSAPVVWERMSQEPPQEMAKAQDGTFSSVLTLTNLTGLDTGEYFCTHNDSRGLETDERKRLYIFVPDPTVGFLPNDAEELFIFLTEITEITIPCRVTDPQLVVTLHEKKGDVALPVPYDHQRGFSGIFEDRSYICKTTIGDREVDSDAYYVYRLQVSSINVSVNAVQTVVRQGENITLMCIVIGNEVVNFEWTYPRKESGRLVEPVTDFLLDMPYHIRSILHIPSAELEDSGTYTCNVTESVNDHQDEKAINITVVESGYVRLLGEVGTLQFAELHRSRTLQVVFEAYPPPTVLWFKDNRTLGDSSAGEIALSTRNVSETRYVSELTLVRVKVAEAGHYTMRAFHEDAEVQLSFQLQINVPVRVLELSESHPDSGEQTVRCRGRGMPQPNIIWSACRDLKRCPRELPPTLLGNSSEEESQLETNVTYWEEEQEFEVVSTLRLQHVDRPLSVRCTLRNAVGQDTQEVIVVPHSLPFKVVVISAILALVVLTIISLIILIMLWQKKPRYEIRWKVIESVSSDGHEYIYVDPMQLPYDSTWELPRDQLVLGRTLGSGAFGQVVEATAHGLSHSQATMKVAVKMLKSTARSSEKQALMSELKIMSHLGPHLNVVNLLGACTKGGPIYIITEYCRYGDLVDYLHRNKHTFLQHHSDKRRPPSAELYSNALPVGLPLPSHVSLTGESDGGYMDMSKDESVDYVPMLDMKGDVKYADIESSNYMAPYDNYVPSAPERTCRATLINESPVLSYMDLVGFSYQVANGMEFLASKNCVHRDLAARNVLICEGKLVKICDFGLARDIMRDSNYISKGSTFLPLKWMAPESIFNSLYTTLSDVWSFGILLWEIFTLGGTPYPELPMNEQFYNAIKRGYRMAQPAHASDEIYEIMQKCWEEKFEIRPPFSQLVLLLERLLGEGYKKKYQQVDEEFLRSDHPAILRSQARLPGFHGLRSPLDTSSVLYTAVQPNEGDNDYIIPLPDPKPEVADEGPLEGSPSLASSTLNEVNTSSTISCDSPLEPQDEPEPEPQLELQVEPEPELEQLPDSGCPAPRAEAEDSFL
UniProt O00506, whole entry: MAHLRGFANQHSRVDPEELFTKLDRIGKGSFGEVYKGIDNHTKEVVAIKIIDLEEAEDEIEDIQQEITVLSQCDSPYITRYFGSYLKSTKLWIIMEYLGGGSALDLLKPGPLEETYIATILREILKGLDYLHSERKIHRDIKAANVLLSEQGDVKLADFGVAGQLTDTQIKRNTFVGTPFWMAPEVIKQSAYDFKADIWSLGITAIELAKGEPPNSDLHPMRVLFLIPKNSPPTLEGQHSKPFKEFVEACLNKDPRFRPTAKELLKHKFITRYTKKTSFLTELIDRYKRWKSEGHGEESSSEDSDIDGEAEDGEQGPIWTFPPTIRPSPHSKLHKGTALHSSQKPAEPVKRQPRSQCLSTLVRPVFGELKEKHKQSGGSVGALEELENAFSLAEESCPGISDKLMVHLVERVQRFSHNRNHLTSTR
UniProt Q6P2M8: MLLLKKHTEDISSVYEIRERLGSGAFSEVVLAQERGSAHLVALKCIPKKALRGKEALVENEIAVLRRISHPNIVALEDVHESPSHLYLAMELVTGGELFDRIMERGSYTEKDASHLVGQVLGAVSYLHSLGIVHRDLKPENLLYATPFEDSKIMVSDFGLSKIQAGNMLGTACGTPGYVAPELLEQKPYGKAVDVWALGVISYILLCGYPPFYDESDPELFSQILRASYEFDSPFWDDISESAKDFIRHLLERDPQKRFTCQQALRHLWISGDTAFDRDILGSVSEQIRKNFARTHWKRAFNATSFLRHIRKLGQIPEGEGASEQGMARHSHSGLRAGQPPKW
UniProt Q14164: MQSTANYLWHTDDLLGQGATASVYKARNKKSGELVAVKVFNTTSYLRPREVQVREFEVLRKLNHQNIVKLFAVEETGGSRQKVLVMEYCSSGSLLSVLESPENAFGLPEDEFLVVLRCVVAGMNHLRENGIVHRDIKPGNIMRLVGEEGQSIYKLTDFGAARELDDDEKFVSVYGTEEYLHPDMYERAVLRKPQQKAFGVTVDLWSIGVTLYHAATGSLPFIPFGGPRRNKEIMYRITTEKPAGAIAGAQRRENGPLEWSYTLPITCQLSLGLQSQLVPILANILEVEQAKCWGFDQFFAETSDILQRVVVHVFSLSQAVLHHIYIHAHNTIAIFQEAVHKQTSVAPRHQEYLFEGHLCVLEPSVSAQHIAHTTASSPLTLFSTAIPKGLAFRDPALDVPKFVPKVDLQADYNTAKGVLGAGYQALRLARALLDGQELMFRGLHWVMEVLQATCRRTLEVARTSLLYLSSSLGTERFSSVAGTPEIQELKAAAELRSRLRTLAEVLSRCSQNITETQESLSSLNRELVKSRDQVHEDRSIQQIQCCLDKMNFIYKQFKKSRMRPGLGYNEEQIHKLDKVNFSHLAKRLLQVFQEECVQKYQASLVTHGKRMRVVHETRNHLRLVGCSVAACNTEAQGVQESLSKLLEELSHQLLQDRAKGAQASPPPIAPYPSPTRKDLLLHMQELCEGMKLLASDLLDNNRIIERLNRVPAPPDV
UniProt Q04912, 25-1400: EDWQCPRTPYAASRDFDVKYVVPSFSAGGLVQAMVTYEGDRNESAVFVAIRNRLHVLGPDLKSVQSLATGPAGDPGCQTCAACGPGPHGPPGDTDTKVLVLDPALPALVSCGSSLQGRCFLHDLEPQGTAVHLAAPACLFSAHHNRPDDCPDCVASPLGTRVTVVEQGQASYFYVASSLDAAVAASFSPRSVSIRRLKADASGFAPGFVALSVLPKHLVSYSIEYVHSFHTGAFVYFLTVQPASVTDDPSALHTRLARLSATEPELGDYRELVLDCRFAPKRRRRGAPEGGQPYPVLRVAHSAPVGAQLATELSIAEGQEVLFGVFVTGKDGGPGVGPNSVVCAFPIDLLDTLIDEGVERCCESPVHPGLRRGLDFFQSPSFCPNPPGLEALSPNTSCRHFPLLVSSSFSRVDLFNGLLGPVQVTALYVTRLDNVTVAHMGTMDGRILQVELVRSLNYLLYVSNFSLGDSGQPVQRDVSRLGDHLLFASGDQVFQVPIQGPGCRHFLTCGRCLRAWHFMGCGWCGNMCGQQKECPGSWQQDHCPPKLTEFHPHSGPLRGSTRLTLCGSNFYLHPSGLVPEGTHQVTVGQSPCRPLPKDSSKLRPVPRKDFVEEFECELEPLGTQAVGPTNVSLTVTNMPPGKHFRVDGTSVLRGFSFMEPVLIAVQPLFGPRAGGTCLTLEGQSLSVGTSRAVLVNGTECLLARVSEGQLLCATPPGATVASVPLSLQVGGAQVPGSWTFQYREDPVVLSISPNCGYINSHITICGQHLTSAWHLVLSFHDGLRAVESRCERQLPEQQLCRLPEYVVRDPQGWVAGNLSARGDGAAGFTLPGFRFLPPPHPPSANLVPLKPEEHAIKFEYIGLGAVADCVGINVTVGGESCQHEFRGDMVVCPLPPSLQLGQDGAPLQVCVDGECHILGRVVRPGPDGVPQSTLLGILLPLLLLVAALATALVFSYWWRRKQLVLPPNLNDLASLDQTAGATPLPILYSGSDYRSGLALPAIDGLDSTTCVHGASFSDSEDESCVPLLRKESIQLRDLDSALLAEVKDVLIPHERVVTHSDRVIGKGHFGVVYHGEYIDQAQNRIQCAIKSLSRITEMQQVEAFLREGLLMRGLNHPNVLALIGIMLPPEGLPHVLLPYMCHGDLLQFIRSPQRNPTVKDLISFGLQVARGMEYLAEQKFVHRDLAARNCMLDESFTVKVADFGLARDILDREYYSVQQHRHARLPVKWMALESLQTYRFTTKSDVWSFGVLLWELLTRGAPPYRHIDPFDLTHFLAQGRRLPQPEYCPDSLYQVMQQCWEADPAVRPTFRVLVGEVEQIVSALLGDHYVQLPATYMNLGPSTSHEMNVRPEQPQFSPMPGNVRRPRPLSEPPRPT
UniProt Q9H2K8: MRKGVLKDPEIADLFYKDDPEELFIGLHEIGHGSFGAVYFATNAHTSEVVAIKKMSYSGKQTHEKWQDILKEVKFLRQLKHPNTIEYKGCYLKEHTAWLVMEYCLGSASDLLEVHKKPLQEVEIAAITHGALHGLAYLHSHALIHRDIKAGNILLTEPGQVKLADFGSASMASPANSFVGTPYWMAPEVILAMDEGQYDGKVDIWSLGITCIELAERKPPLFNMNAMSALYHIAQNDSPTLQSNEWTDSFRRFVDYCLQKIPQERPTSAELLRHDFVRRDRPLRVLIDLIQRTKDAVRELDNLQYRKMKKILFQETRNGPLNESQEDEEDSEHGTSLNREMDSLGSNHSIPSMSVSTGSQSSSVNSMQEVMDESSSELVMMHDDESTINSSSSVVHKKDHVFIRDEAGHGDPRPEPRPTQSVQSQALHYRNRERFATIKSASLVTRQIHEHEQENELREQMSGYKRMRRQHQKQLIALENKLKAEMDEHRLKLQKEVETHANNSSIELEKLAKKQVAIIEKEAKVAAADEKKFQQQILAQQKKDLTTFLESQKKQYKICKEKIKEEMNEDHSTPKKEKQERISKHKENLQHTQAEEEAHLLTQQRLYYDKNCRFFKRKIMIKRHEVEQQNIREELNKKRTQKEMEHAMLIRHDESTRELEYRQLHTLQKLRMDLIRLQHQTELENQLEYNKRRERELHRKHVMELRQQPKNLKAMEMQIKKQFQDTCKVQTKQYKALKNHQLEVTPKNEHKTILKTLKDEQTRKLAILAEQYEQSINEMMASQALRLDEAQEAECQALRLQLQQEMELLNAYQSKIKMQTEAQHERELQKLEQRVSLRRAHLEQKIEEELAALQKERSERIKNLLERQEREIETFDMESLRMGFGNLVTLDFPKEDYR
UniProt Q16288, 32-839: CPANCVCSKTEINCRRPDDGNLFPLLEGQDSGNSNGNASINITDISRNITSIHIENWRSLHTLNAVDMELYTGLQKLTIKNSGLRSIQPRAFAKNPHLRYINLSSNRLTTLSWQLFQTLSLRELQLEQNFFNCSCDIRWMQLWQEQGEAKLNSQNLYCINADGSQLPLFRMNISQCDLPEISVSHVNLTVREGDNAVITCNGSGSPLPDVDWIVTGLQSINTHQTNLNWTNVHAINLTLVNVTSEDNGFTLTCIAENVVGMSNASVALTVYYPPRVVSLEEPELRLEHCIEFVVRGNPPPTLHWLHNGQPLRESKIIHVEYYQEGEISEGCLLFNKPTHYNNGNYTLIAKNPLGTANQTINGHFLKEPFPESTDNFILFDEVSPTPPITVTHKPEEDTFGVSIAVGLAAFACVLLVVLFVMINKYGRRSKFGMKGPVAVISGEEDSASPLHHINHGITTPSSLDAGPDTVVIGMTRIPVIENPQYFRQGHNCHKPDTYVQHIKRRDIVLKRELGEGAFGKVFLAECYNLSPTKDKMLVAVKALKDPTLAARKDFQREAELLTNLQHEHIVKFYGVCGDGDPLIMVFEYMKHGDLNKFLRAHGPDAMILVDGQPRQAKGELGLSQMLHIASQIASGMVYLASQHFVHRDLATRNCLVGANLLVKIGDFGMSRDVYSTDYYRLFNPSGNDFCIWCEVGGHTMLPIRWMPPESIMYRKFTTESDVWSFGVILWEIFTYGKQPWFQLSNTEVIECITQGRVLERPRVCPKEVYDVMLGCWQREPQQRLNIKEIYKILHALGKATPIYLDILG

Experiments:
[1] = target: AURORA B (Homo sapiens, UniProt Q96GD4); details: 1 μM; Run 1, Run 2
[2] = target: BLK (Homo sapiens, UniProt P51451); details: 1 μM; Run 1, Run 2
[3] = target: CAMK4 (Homo sapiens, UniProt Q16566); details: 1 μM; Run 1, Run 2
[4] = target: T1, CDK18/cyclin Y (PCTK3) (Homo sapiens, UniProt Q07002); details: 1 μM; Run 1, Run 2
[5] = target: CDK2/Cyclin A1 (Homo sapiens, UniProt P24941); details: 1 μM; Run 1, Run 2
[6] = target: CDK3/cyclin E (Homo sapiens, UniProt Q00526); details: 1 μM; Run 1, Run 2
[7] = target: CDK4/cyclin D1 (Homo sapiens, UniProt P11802); details: 1 μM; Run 1, Run 2
[8] = target: T2, CDK4/cyclin D3 (Homo sapiens, UniProt P11802); details: 1 μM; Run 1, Run 2
[9] = target: FER (Homo sapiens, UniProt P16591); details: 1 μM; Run 1, Run 2
[10] = target: FYN (Homo sapiens, UniProt P06241); details: 1 μM; Run 1, Run 2
[11] = target: MAPKAPK2 (Homo sapiens, UniProt P49137); details: 1 μM; Run 1, Run 2
[12] = target: MARK3 (Homo sapiens, UniProt P27448); details: 1 μM; Run 1, Run 2
[13] = target: MLK4 (Homo sapiens, UniProt Q5TCX8); details: 1 μM; Run 1, Run 2
[14] = target: MST1/STK4 (Homo sapiens, UniProt Q13043); details: 1 μM; Run 1, Run 2
[15] = target: PDGFRa (Homo sapiens, UniProt P16234); details: 1 μM; Run 1, Run 2
[16] = target: PDGFRb (Homo sapiens, UniProt P09619); details: 1 μM; Run 1, Run 2
[17] = target: PLK4/SAK (Homo sapiens, UniProt O00444); details: 1 μM; Run 1, Run 2
[18] = target: ROCK1 (Homo sapiens, UniProt Q13464); details: 1 μM; Run 1, Run 2
[19] = target: ROCK2 (Homo sapiens, UniProt O75116); details: 1 μM; Run 1, Run 2
[20] = target: STK25/YSK1 (Homo sapiens, UniProt O00506); details: 1 μM; Run 1, Run 2
[21] = target: SYK (Homo sapiens, UniProt P43405); details: 1 μM; Run 1, Run 2
[22] = target: WNK3 (Homo sapiens, UniProt Q9BYP7); details: 1 μM; Run 1, Run 2
[23] = target: ZIPK/DAPK3 (Homo sapiens, UniProt O43293); details: 1 μM; Run 1, Run 2
[24] = target: BTK (Homo sapiens, UniProt Q06187); assay: biochemical; details: read-out: % enzyme activity, 1 μM; Run 1, Run 2
[25] = target: CAMK1b (Homo sapiens, UniProt Q6P2M8); assay: biochemical; details: read-out: % enzyme activity, 1 μM; Run 1, Run 2
[26] = target: T1, CDK18/cyclin Y (PCTK3); assay: biochemical; details: read-out: % enzyme activity, 1 μM; Run 1, Run 2
[27] = target: T2, CDK4/cyclin D3; assay: biochemical; details: read-out: % enzyme activity, 1 μM; Run 1, Run 2
[28] = target: ERK2/MAPK1 (Homo sapiens, UniProt P28482); assay: biochemical; details: read-out: % enzyme activity, 1 μM; Run 1, Run 2
[29] = target: IKKe/IKBKE (Homo sapiens, UniProt Q14164); assay: biochemical; details: read-out: % enzyme activity, 1 μM; Run 1, Run 2
[30] = target: JNK1 (Homo sapiens, UniProt P45983); assay: biochemical; details: read-out: % enzyme activity, 1 μM; Run 1, Run 2
[31] = target: JNK3 (Homo sapiens, UniProt P53779); assay: biochemical; details: read-out: % enzyme activity, 1 μM; Run 1, Run 2
[32] = target: MEKK6 (Homo sapiens, UniProt O95382); assay: biochemical; details: read-out: % enzyme activity, 1 μM; Run 1, Run 2
[33] = target: MSK1/RPS6KA5 (Homo sapiens, UniProt O75582); assay: biochemical; details: read-out: % enzyme activity, 1 μM; Run 1, Run 2
[34] = target: MST2/STK3 (Homo sapiens, UniProt Q13188); assay: biochemical; details: read-out: % enzyme activity, 1 μM; Run 1, Run 2
[35] = target: PAK6 (Homo sapiens, UniProt Q9NQU5); assay: biochemical; details: read-out: % enzyme activity, 1 μM; Run 1, Run 2
[36] = target: PKCiota (Homo sapiens, UniProt P41743); assay: biochemical; details: read-out: % enzyme activity, 1 μM; Run 1, Run 2
[37] = target: PKD2/PRKD2 (Homo sapiens, UniProt Q9BZL6); assay: biochemical; details: read-out: % enzyme activity, 1 μM; Run 1, Run 2
[38] = target: PRKX (Homo sapiens, UniProt P51817); assay: biochemical; details: read-out: % enzyme activity, 1 μM; Run 1, Run 2
[39] = target: RON/MST1R (Homo sapiens, UniProt Q04912); assay: biochemical; details: read-out: % enzyme activity, 1 μM; Run 1, Run 2
[40] = target: STK21/CIT (Homo sapiens, UniProt O14578); assay: biochemical; details: read-out: % enzyme activity, 1 μM; Run 1, Run 2
[41] = target: TAOK3/JIK (Homo sapiens, UniProt Q9H2K8); assay: biochemical; details: read-out: % enzyme activity, 1 μM; Run 1, Run 2
[42] = target: TRKC (Homo sapiens, UniProt Q16288); assay: biochemical; details: read-out: % enzyme activity, 1 μM; Run 1, Run 2

## COc1cc(-c2cncc(-c3ccc(N4CCN(C(C)C)CC4)cc3)c2C)cc(F)c1C(N)=O [Compound 26b, 2-Fluoro-4-(5-(4-(4-isopropylpiperazin-1-yl)phenyl)-4-methylpyridin-3-yl)-6-methoxybenzamide]
[1]
  % enzyme activity: 110.21%
[2]
  % enzyme activity: 100.60%
[3]
  % enzyme activity: 101.77%
[4]
  % enzyme activity: 100.66%
[5]
  % enzyme activity: 111.68%
[6]
  % enzyme activity: 85.35%
[7]
  % enzyme activity: 99.89%
[8]
  % enzyme activity: 93.67%
[9]
  % enzyme activity: 83.48%
[10]
  % enzyme activity: 119.07%
[11]
  % enzyme activity: 98.48%
[12]
  % enzyme activity: 91.46%
[13]
  % enzyme activity: 89.41%
[14]
  % enzyme activity: 99.22%
[15]
  % enzyme activity: 79.03%
[16]
  % enzyme activity: 88.87%
[17]
  % enzyme activity: 93.89%
[18]
  % enzyme activity: 96.20%
[19]
  % enzyme activity: 119.86%
[20]
  % enzyme activity: 91.63%
[21]
  % enzyme activity: 99.79%
[22]
  % enzyme activity: 90.95%
[23]
  % enzyme activity: 105.01%
[24]
  remaining activity at 1 µM: 97.7%
[25]
  remaining activity at 1 µM: 101%
[26]
  remaining activity at 1 µM: 102%
[27]
  remaining activity at 1 µM: 93.7%
[28]
  remaining activity at 1 µM: 89.3%
[29]
  remaining activity at 1 µM: 92.2%
[30]
  remaining activity at 1 µM: 86.4%
[31]
  remaining activity at 1 µM: 98.8%
[32]
  remaining activity at 1 µM: 95.2%
[33]
  remaining activity at 1 µM: 99.7%
[34]
  remaining activity at 1 µM: 98.3%
[35]
  remaining activity at 1 µM: 98.8%
[36]
  remaining activity at 1 µM: 100%
[37]
  remaining activity at 1 µM: 105%
[38]
  remaining activity at 1 µM: 97%
[39]
  remaining activity at 1 µM: 114%
[40]
  remaining activity at 1 µM: 103%
[41]
  remaining activity at 1 µM: 68.9%
[42]
  remaining activity at 1 µM: 119%
